Results taken from US8138119B2, “Alkoxyalkyl spirocyclic tetramic acids and tetronic acids” (Bayer Cropscience AG, priority 2005, dated 2012).
Some results were stated once for a whole list of compounds, not compound by compound.

Assays:
Assay type in all cases: in vivo
[1] = system: caterpillars of the armyworm (Spodoptera frugiperda); experiment: Spodoptera frugiperda test (SPODFR spray treatment); settings: 500 g/ha of a.i., after 7 d, maize leaf disks sprayed
[2] = system: green peach aphid (Myzus persicae); experiment: Myzus test (MYZUPE spray treatment); settings: 500 g/ha of a.i., after 5 d, Chinese cabbage disks sprayed
[3] = system: larvae of the mustard beetle (Phaedon cochleariae); experiment: Phaedon test (PHAECO spray treatment); settings: 500 g/ha of a.i., after 7 d, Chinese cabbage disks sprayed
Echinochloa crusgalli = experiment: Herbicidal post-emergence action; settings: about 3 weeks; for herbicidal activity against Echinochloa crus-galli: 80 g/ha of a.i.; for herbicidal activity against Echinochloa crusgalli: 320 g/ha of a.i.
Setaria viridis = experiment: Herbicidal post-emergence action; settings: about 3 weeks
Lolium multiflorum = experiment: Herbicidal post-emergence action; settings: about 3 weeks
Avena sativa = experiment: Herbicidal post-emergence action; settings: 320 g/ha of a.i., about 3 weeks

COCC1CCCC2(C1)NC(=O)C(c1cc(C)c(Cl)cc1C)=C2O (single isomer, unassigned) [Example I-1-a-21]
≥ 80%: efficacy (caterpillars killed) [1] | efficacy (aphids killed) [2] | efficacy (beetle larvae killed) [3]

COCC1CCCC2(C1)NC(=O)C(c1cc(C)ccc1Br)=C2O (single isomer, unassigned) [Example I-1-a-22]
≥ 80%: efficacy (caterpillars killed) [1] | efficacy (aphids killed) [2] | efficacy (beetle larvae killed) [3]

CCc1cc(C)cc(Br)c1C1=C(O)C2(CCC(CCOC)CC2)NC1=O (single isomer, unassigned) [Example I-1-a-48]
≥ 80%: efficacy (aphids killed) [2] | herbicidal activity against Echinochloa crus-galli (Echinochloa crusgalli) | herbicidal activity against Echinochloa crusgalli (Echinochloa crusgalli) | efficacy (beetle larvae killed) [3] | herbicidal activity against Setaria viridis (Setaria viridis; 80 g/ha of a.i.) | herbicidal activity against Setaria viridis (Setaria viridis; 320 g/ha of a.i.) | herbicidal activity against Lolium multiflorum (Lolium multiflorum; 80 g/ha of a.i.) | herbicidal activity against Lolium multiflorum (Lolium multiflorum; 320 g/ha of a.i.) | herbicidal activity against Avena sativa (Avena sativa)

COCCC1CCC2(CC1)NC(=O)C(c1c(C)cc(Cl)cc1C)=C2O (single isomer, unassigned) [Example I-1-a-54]
≥ 80%: efficacy (caterpillars killed) [1] | efficacy (aphids killed) [2] | herbicidal activity against Echinochloa crusgalli (Echinochloa crusgalli) | efficacy (beetle larvae killed) [3] | herbicidal activity against Setaria viridis (Setaria viridis; 320 g/ha of a.i.) | herbicidal activity against Lolium multiflorum (Lolium multiflorum; 320 g/ha of a.i.) | herbicidal activity against Avena sativa (Avena sativa)

COCCC1CCC2(CC1)NC(=O)C(c1c(C)cc(I)cc1C)=C2O (single isomer, unassigned) [Example I-1-a-57]
≥ 80%: efficacy (aphids killed) [2] | herbicidal activity against Echinochloa crusgalli (Echinochloa crusgalli) | efficacy (beetle larvae killed) [3] | herbicidal activity against Setaria viridis (Setaria viridis; 320 g/ha of a.i.) | herbicidal activity against Lolium multiflorum (Lolium multiflorum; 320 g/ha of a.i.) | herbicidal activity against Avena sativa (Avena sativa)

COCCC1CCC2(CC1)NC(=O)C(c1cc(C)ccc1C)=C2O (single isomer, unassigned) [Example I-1-a-58]
≥ 80%: efficacy (caterpillars killed) [1] | efficacy (aphids killed) [2] | efficacy (beetle larvae killed) [3]

COCC1CCCC2(C1)NC(=O)C(c1c(C)cc(C)cc1OC)=C2O (single isomer, unassigned) [Example I-1-a-60]
≥ 80%: efficacy (aphids killed) [2] | herbicidal activity against Echinochloa crus-galli (Echinochloa crusgalli) | herbicidal activity against Echinochloa crusgalli (Echinochloa crusgalli) | efficacy (beetle larvae killed) [3] | herbicidal activity against Setaria viridis (Setaria viridis; 80 g/ha of a.i.) | herbicidal activity against Setaria viridis (Setaria viridis; 320 g/ha of a.i.) | herbicidal activity against Lolium multiflorum (Lolium multiflorum; 80 g/ha of a.i.) | herbicidal activity against Lolium multiflorum (Lolium multiflorum; 320 g/ha of a.i.) | herbicidal activity against Avena sativa (Avena sativa)

COCC1CCC2(CC1)NC(=O)C(c1c(C)cc(Br)cc1C)=C2OC(=O)C(C)C (single isomer, unassigned) [Example I-1-b-12]
≥ 80%: efficacy (aphids killed) [2] | herbicidal activity against Echinochloa crusgalli (Echinochloa crusgalli) | efficacy (beetle larvae killed) [3] | herbicidal activity against Setaria viridis (Setaria viridis; 320 g/ha of a.i.) | herbicidal activity against Lolium multiflorum (Lolium multiflorum; 320 g/ha of a.i.) | herbicidal activity against Avena sativa (Avena sativa)

COCC1CCC2(CC1)NC(=O)C(c1c(C)cc(Cl)cc1C)=C2OC(=O)C(C)C (single isomer, unassigned) [Example I-1-b-13]
≥ 80%: efficacy (caterpillars killed) [1] | efficacy (aphids killed) [2] | herbicidal activity against Echinochloa crusgalli (Echinochloa crusgalli) | efficacy (beetle larvae killed) [3] | herbicidal activity against Setaria viridis (Setaria viridis; 320 g/ha of a.i.) | herbicidal activity against Lolium multiflorum (Lolium multiflorum; 320 g/ha of a.i.) | herbicidal activity against Avena sativa (Avena sativa)

COCC1CCC2(CC1)NC(=O)C(c1c(C)cc(C)cc1C)=C2OC(=O)C(C)C (single isomer, unassigned) [Example I-1-b-14]
≥ 80%: efficacy (caterpillars killed) [1] | efficacy (aphids killed) [2] | herbicidal activity against Echinochloa crusgalli (Echinochloa crusgalli) | efficacy (beetle larvae killed) [3] | herbicidal activity against Setaria viridis (Setaria viridis; 320 g/ha of a.i.) | herbicidal activity against Lolium multiflorum (Lolium multiflorum; 320 g/ha of a.i.) | herbicidal activity against Avena sativa (Avena sativa)

COCC1CCC2(CC1)NC(=O)C(c1cc(C)c(C)cc1C)=C2OC(=O)C(C)C (single isomer, unassigned) [Example I-1-b-15]
≥ 80%: efficacy (caterpillars killed) [1] | efficacy (aphids killed) [2] | efficacy (beetle larvae killed) [3]

CCc1cc(C)cc(Br)c1C1=C(OC(=O)C(C)C)C2(CCC(CCOC)CC2)NC1=O (single isomer, unassigned) [Example I-1-b-19]
≥ 80%: efficacy (aphids killed) [2] | herbicidal activity against Echinochloa crus-galli (Echinochloa crusgalli) | herbicidal activity against Echinochloa crusgalli (Echinochloa crusgalli) | efficacy (beetle larvae killed) [3] | herbicidal activity against Setaria viridis (Setaria viridis; 80 g/ha of a.i.) | herbicidal activity against Setaria viridis (Setaria viridis; 320 g/ha of a.i.) | herbicidal activity against Lolium multiflorum (Lolium multiflorum; 80 g/ha of a.i.) | herbicidal activity against Lolium multiflorum (Lolium multiflorum; 320 g/ha of a.i.) | herbicidal activity against Avena sativa (Avena sativa)

CCOC(=O)OC1=C(c2c(C)cc(C)cc2C)C(=O)NC12CCCC(COC)C2 (single isomer, unassigned) [Example I-1-c-9]
≥ 80%: efficacy (aphids killed) [2] | herbicidal activity against Echinochloa crusgalli (Echinochloa crusgalli) | efficacy (beetle larvae killed) [3] | herbicidal activity against Setaria viridis (Setaria viridis; 320 g/ha of a.i.) | herbicidal activity against Lolium multiflorum (Lolium multiflorum; 320 g/ha of a.i.) | herbicidal activity against Avena sativa (Avena sativa)

CCOC(=O)OC1=C(c2c(C)cc(Br)cc2C)C(=O)NC12CCC(COC)CC2 (single isomer, unassigned) [Example I-1-c-17]
≥ 80%: efficacy (caterpillars killed) [1] | efficacy (aphids killed) [2] | herbicidal activity against Echinochloa crusgalli (Echinochloa crusgalli) | efficacy (beetle larvae killed) [3] | herbicidal activity against Setaria viridis (Setaria viridis; 320 g/ha of a.i.) | herbicidal activity against Lolium multiflorum (Lolium multiflorum; 320 g/ha of a.i.) | herbicidal activity against Avena sativa (Avena sativa)

CCOC(=O)OC1=C(c2c(C)cc(Cl)cc2C)C(=O)NC12CCC(COC)CC2 (single isomer, unassigned) [Example I-1-c-19]
≥ 80%: efficacy (caterpillars killed) [1] | efficacy (aphids killed) [2] | efficacy (beetle larvae killed) [3]

CCOC(=O)OC1=C(c2c(C)cc(Cl)cc2Cl)C(=O)NC12CCC(COC)CC2 (single isomer, unassigned) [Example I-1-c-20]
≥ 80%: efficacy (caterpillars killed) [1] | efficacy (aphids killed) [2] | herbicidal activity against Echinochloa crusgalli (Echinochloa crusgalli) | efficacy (beetle larvae killed) [3] | herbicidal activity against Setaria viridis (Setaria viridis; 320 g/ha of a.i.) | herbicidal activity against Lolium multiflorum (Lolium multiflorum; 320 g/ha of a.i.) | herbicidal activity against Avena sativa (Avena sativa)

CCOC(=O)OC1=C(c2cc(C)c(Cl)cc2C)C(=O)NC12CCC(COC)CC2 (single isomer, unassigned) [Example I-1-c-22]
≥ 80%: efficacy (caterpillars killed) [1] | efficacy (aphids killed) [2] | efficacy (beetle larvae killed) [3]

CCOC(=O)OC1=C(c2c(Br)cc(C)cc2CC)C(=O)NC12CCC(CCOC)CC2 (single isomer, unassigned) [Example I-1-c-28]
≥ 80%: efficacy (aphids killed) [2] | herbicidal activity against Echinochloa crusgalli (Echinochloa crusgalli) | efficacy (beetle larvae killed) [3] | herbicidal activity against Setaria viridis (Setaria viridis; 320 g/ha of a.i.) | herbicidal activity against Lolium multiflorum (Lolium multiflorum; 320 g/ha of a.i.) | herbicidal activity against Avena sativa (Avena sativa)

CCOC(=O)OC1=C(c2c(Cl)cc(C)cc2OC)C(=O)NC12CCC(CCOC)CC2 (single isomer, unassigned) [Example I-1-c-31]
≥ 80%: efficacy (caterpillars killed) [1] | efficacy (aphids killed) [2] | herbicidal activity against Echinochloa crusgalli (Echinochloa crusgalli) | herbicidal activity against Setaria viridis (Setaria viridis; 320 g/ha of a.i.) | herbicidal activity against Lolium multiflorum (Lolium multiflorum; 320 g/ha of a.i.) | herbicidal activity against Avena sativa (Avena sativa)

CCOC(=O)OC1=C(c2c(C)cc(Br)cc2C)C(=O)NC12CCC(CCOC)CC2 (single isomer, unassigned) [Example I-1-c-32]
≥ 80%: efficacy (caterpillars killed) [1] | efficacy (aphids killed) [2] | efficacy (beetle larvae killed) [3]

COCC1CCC2(CC1)NC(=O)C(c1c(C)cc(Br)cc1C)=C2O (stereo not shown) [Example I-1-a-31]
≥ 80%: efficacy (aphids killed) [2] | herbicidal activity against Echinochloa crus-galli (Echinochloa crusgalli) | herbicidal activity against Echinochloa crusgalli (Echinochloa crusgalli) | efficacy (beetle larvae killed) [3] | herbicidal activity against Setaria viridis (Setaria viridis; 80 g/ha of a.i.) | herbicidal activity against Setaria viridis (Setaria viridis; 320 g/ha of a.i.) | herbicidal activity against Lolium multiflorum (Lolium multiflorum; 80 g/ha of a.i.) | herbicidal activity against Lolium multiflorum (Lolium multiflorum; 320 g/ha of a.i.) | herbicidal activity against Avena sativa (Avena sativa)

COCC1CCC2(CC1)NC(=O)C(c1cc(C)ccc1Br)=C2O (stereo not shown) [Example I-1-a-33]
≥ 80%: efficacy (caterpillars killed) [1] | efficacy (aphids killed) [2] | efficacy (beetle larvae killed) [3]

COCC1CCC2(CC1)NC(=O)C(c1c(C)cc(Cl)cc1Cl)=C2O (stereo not shown) [Example I-1-a-35]
≥ 80%: efficacy (caterpillars killed) [1] | efficacy (aphids killed) [2] | herbicidal activity against Echinochloa crusgalli (Echinochloa crusgalli) | efficacy (beetle larvae killed) [3] | herbicidal activity against Setaria viridis (Setaria viridis; 320 g/ha of a.i.) | herbicidal activity against Lolium multiflorum (Lolium multiflorum; 320 g/ha of a.i.) | herbicidal activity against Avena sativa (Avena sativa)

COCC1CCC2(CC1)NC(=O)C(c1cc(C)c(Cl)cc1C)=C2O (stereo not shown) [Example I-1-a-37]
≥ 80%: efficacy (caterpillars killed) [1] | efficacy (aphids killed) [2] | efficacy (beetle larvae killed) [3]

COCCC1CCCC2(C1)OC(=O)C(c1c(C)ccc(-c3ccc(Cl)cc3)c1C)=C2O (stereo not shown) [Example I-2-a-27]
≥ 80%: efficacy (caterpillars killed) [1]

COCCC1CCC2(CC1)OC(=O)C(c1cc(-c3ccc(Cl)cc3)ccc1C)=C2O (stereo not shown) [Example I-2-a-28]
≥ 80%: efficacy (caterpillars killed) [1] | efficacy (aphids killed) [2] | efficacy (beetle larvae killed) [3]

CCOC(=O)OC1=C(c2c(C)cc(C)cc2C)C(=O)OC12CCC(CCOC)CC2 (stereo not shown) [Example I-2-c-1]
≥ 80%: efficacy (caterpillars killed) [1] | efficacy (aphids killed) [2] | efficacy (beetle larvae killed) [3]
